Results taken from PMC2920863.
No constants are given. Whether binding was seen depends on the method and setting. Binding seen in cells or lysates may run through a third protein.

Chains of the proteins cited; added tags and fusions are not shown.
UniProt Q3ZBT1: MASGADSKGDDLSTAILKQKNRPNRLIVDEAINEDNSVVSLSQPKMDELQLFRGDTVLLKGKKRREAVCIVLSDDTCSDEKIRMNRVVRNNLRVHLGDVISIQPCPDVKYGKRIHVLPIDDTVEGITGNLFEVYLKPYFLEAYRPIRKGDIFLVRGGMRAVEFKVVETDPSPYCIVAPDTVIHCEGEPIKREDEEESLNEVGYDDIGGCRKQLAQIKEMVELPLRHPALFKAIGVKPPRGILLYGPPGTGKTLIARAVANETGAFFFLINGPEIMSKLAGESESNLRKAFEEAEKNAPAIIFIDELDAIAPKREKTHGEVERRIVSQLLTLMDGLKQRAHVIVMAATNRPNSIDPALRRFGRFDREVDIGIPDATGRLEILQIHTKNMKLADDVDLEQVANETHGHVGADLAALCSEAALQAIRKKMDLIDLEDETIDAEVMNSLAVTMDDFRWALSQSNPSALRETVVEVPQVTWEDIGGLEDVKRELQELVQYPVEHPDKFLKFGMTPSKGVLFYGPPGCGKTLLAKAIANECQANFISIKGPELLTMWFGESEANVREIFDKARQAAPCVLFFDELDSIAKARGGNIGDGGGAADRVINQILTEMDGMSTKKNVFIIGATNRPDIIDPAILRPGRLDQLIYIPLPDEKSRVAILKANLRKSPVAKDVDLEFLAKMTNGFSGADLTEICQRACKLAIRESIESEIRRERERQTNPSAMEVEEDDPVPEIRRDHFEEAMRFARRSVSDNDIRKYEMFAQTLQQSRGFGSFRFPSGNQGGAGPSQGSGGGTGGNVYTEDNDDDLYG

Molecular target: T1, DERL1 (bovine (endogenous in corpus luteum)) (UniProt Q71SS4)
T1 sequence: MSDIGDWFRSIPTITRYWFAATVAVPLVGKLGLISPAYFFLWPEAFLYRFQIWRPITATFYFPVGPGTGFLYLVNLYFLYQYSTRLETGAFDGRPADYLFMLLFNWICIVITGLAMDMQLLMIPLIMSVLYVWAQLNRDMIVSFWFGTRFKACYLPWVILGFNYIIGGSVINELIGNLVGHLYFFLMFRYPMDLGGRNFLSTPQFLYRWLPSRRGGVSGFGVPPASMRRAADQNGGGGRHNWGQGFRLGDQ
Test: co-IP; bovine luteal tissue lysate (100 ug; days 5, 11, 18 of the estrous cycle), precleared, immunoprecipitated with anti-DERL1 antibody and protein A Sepharose CL-4B at 4°C, washed 3 times in lysis buffer with 1% Nonidet-P40; precipitates and supernatants blotted for class I MHC, VIMP and p97

**Q.** For “ATPase p97/Valosin-containing protein (VCP) (from UniProt Q3ZBT1 1-806)”, which binding is on record?
**A.** The binding was “no binding”.
